Data as given in PubChem BioAssay AID1259405 (NCATS, 2018)
The whole screen tested about 50,000 reagents; below is a part drawn at random. About 4,000 of them (8%) were called active. 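Mouse siRNA library applied to hamster cells; one well for each siRNA.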 Entries without a mark were called inactive. Reagents against one gene are numbered here.

Aim: 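Mouse-designed siRNAs used to find CHO productivity engineering targets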 (primary screen)
Cells: Chinese hamster CHO-K1 ovary cells with stable secreted eGFP expression
Knock-down reagent: single siRNA against mouse genes, 0.8 pmol siRNA per well (2 µl of 400 nM stock)
Time to read-out: 3 days
Detection: 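Per-well intracellular GFP measured by laser scanning cytometry, plus viability from ATP luminescence, each relative to plate median of non-targeting control wells, in %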
Direction: GFP, % of control: higher = more GFP per well, higher productivity; viability (ATP), % of control: higher = more viable cells (more ATP)
Rule for the call: 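Called active when intracellular GFP, relative to negative control, is at or above 120%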

gene knocked down,siRNA no.,"GFP, % of control","viability (ATP), % of control"
Them5,1,70.2,74.8
Them5,2,49,90.8
Them5,3,60.8,55
Pde6a,1,93.3,97.4
Pde6a,2,110,56.6
Pde6a,3,105,69.4
Chm,1,94.5,88.2
Chm,2,151 (active),114
Chm,3,94.3,89.9
C1qtnf6,1,50.4,23.9
C1qtnf6,2,44.1,68.2
C1qtnf6,3,89.7,63.7
Or5p79,1,67.7,57.5
Or5p79,2,91.9,85
Or5p79,3,35.4,60.3
Smg6,1,105,87.4
Smg6,2,90.9,40.4
Smg6,3,98.3,82.8
Phgr1,1,105,90.2
Phgr1,2,70.9,89.7
Phgr1,3,66.7,76.6
Or2av9,1,114,60.7
Or2av9,2,58.9,48.4
Or2av9,3,101,72.5
Evl,1,55.4,71.7
Evl,2,82.6,95
Evl,3,91,67.3
Ndufa3,1,71,69.5
Ndufa3,2,49.6,43.9
Or10a2,1,83.7,96.3
Or10a2,2,73.4,76.7
Or10a2,3,97.6,31.1
Or10al6,1,47.4,96.6
Or10al6,2,93.3,77.8
Or10al6,3,134 (active),41
Mov10l1,1,121 (active),70.1
Mov10l1,2,86.1,80.2
Mov10l1,3,56.1,71
Tex13b,1,76.3,87.1
Tex13b,2,68.9,102
Tex13b,3,76.1,117
Ehbp1l1,1,55.1,69.2
Ehbp1l1,2,70.6,90.6
Ehbp1l1,3,55.5,82.1
Xbp1,1,124 (active),85.9
Xbp1,2,57.3,63.4
Xbp1,3,95.4,88.2
Ddx59,1,126 (active),68
Ddx59,2,111,84.6
Ddx59,3,53.4,43.9
Golt1b,1,98.2,74.4
Golt1b,2,103,83.9
Golt1b,3,74.4,71.9
Rsph3a,1,59.1,45.7
Rsph3a,2,82.1,76.8
Rsph3a,3,77.6,92.6
Vmn1r69,1,72.5,28.2
Vmn1r69,2,65.3,74.2
Vmn1r69,3,74.1,74.7

3 of these entries, set out differently:
{"gene knocked down":"Ehbp1l1","siRNA no.":2,"GFP, % of control":70.6,"viability (ATP), % of control":90.6}
{"gene knocked down":"Ehbp1l1","siRNA no.":3,"GFP, % of control":55.5,"viability (ATP), % of control":82.1}
{"gene knocked down":"Xbp1","siRNA no.":1,"GFP, % of control":"124 (active)","viability (ATP), % of control":85.9}
